According to patent US7375074B2 (priority 2001, dated 2008):

Test: general procedure: Fmoc solid-phase peptide synthesis; Fmoc-Leu-O-Clt resin; DCC/HOBt; HBTU for one peptide
Details: whole synthesis, scale 0.25 mmol

“Fmoc-Trp-Tyr-Lys-His-Val-Ala-Ser-Pro-Arg-Tyr-His-Thr-Val-Gly-Arg-Ala-Ala-Gly-Leu-Leu-Met-Gly-Leu” gave an isolated mass of 9.7 mg.
